{"source": "PubChem BioAssay AID1259254 (NCATS, 2017)", "test": "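Finding genes that stop cells copying their DNA twice in one cycle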 (primary screen)", "system": "human HCT116 colorectal cancer cells", "knock-down reagent": "single siRNA against human genes", "duration": "3 days", "measured": "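Imaged Hoechst DNA stain sorts each cell into a cycle phase by DNA amount; per plate, G2 fraction set to 0% for non-targeting and 100% for GMNN siRNA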", "direction": "G2 robust z-score and G2 cells, % of GMNN control: higher = more G2 cells, more excess DNA replication", "rule for the call": "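Active siRNAs have a G2 robust z of 5 or more median absolute deviations over the median, which in these data means about 38% or higher of GMNN control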", "note": "The whole screen tested about 59,000 reagents; this is an unselected part. In the full data, about 1,550 (2.6%) are marked active. 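G2 share is only a proxy for re-replication; each gene was hit by three separate siRNAs, and active genes were retested.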 Reagents against one gene are numbered here. Not all columns of the deposit are shown. Not given: the amount of reagent."}
The opening 3 records, to show the layout:
{"target gene": "FGL2 (fibrinogen like 2)", "reagent no.": 1, "G2 robust z-score": 1.48, "G2 cells, % of GMNN control": 13.4, "Outcome": "inactive"}
{"target gene": "FGL2 (fibrinogen like 2)", "reagent no.": 2, "G2 robust z-score": -0.903, "G2 cells, % of GMNN control": -3.39, "Outcome": "inactive"}
{"target gene": "FGL2 (fibrinogen like 2)", "reagent no.": 3, "G2 robust z-score": 0.0903, "G2 cells, % of GMNN control": 3.6, "Outcome": "inactive"}

Results, repeating the preview:
{"target gene": "FGL2 (fibrinogen like 2)", "reagent no.": 1, "G2 robust z-score": 1.48, "G2 cells, % of GMNN control": 13.4, "Outcome": "inactive"}
{"target gene": "FGL2 (fibrinogen like 2)", "reagent no.": 2, "G2 robust z-score": -0.903, "G2 cells, % of GMNN control": -3.39, "Outcome": "inactive"}
{"target gene": "FGL2 (fibrinogen like 2)", "reagent no.": 3, "G2 robust z-score": 0.0903, "G2 cells, % of GMNN control": 3.6, "Outcome": "inactive"}
{"target gene": "LOC645645 (retired record)", "reagent no.": 1, "G2 robust z-score": 0.879, "G2 cells, % of GMNN control": 9.15, "Outcome": "inactive"}
{"target gene": "LOC645645 (retired record)", "reagent no.": 2, "G2 robust z-score": -0.973, "G2 cells, % of GMNN control": -3.88, "Outcome": "inactive"}
{"target gene": "LOC645645 (retired record)", "reagent no.": 3, "G2 robust z-score": 0.00415, "G2 cells, % of GMNN control": 3, "Outcome": "inactive"}
{"target gene": "ASF1A (anti-silencing function 1A histone chaperone)", "reagent no.": 1, "G2 robust z-score": -0.629, "G2 cells, % of GMNN control": -1.46, "Outcome": "inactive"}
{"target gene": "ASF1A (anti-silencing function 1A histone chaperone)", "reagent no.": 2, "G2 robust z-score": 1.7, "G2 cells, % of GMNN control": 14.9, "Outcome": "inactive"}
{"target gene": "ASF1A (anti-silencing function 1A histone chaperone)", "reagent no.": 3, "G2 robust z-score": 2, "G2 cells, % of GMNN control": 17, "Outcome": "inactive"}
{"target gene": "DUSP15 (dual specificity phosphatase 15)", "reagent no.": 1, "G2 robust z-score": -0.254, "G2 cells, % of GMNN control": 1.18, "Outcome": "inactive"}
{"target gene": "DUSP15 (dual specificity phosphatase 15)", "reagent no.": 2, "G2 robust z-score": 0.34, "G2 cells, % of GMNN control": 5.36, "Outcome": "inactive"}
{"target gene": "DUSP15 (dual specificity phosphatase 15)", "reagent no.": 3, "G2 robust z-score": 2.79, "G2 cells, % of GMNN control": 22.6, "Outcome": "inactive"}
{"target gene": "ZCCHC3 (zinc finger CCHC-type containing 3)", "reagent no.": 1, "G2 robust z-score": -0.657, "G2 cells, % of GMNN control": -1.65, "Outcome": "inactive"}
{"target gene": "ZCCHC3 (zinc finger CCHC-type containing 3)", "reagent no.": 2, "G2 robust z-score": 0.182, "G2 cells, % of GMNN control": 4.25, "Outcome": "inactive"}
{"target gene": "ZCCHC3 (zinc finger CCHC-type containing 3)", "reagent no.": 3, "G2 robust z-score": -0.574, "G2 cells, % of GMNN control": -1.07, "Outcome": "inactive"}
{"target gene": "GS1-24F4.2", "reagent no.": 1, "G2 robust z-score": -0.705, "G2 cells, % of GMNN control": -1.99, "Outcome": "inactive"}
{"target gene": "GS1-24F4.2", "reagent no.": 2, "G2 robust z-score": -0.602, "G2 cells, % of GMNN control": -1.27, "Outcome": "inactive"}
{"target gene": "GS1-24F4.2", "reagent no.": 3, "G2 robust z-score": -0.413, "G2 cells, % of GMNN control": 0.0642, "Outcome": "inactive"}
{"target gene": "SSR1 (signal sequence receptor subunit 1)", "reagent no.": 1, "G2 robust z-score": 4.88, "G2 cells, % of GMNN control": 37.3, "Outcome": "inactive"}
{"target gene": "SSR1 (signal sequence receptor subunit 1)", "reagent no.": 2, "G2 robust z-score": 0.476, "G2 cells, % of GMNN control": 6.31, "Outcome": "inactive"}
{"target gene": "SSR1 (signal sequence receptor subunit 1)", "reagent no.": 3, "G2 robust z-score": 1.95, "G2 cells, % of GMNN control": 16.7, "Outcome": "inactive"}
{"target gene": "SLC31A1", "reagent no.": 1, "G2 robust z-score": 0.635, "G2 cells, % of GMNN control": 7.44, "Outcome": "inactive"}
{"target gene": "SLC31A1", "reagent no.": 2, "G2 robust z-score": 3.03, "G2 cells, % of GMNN control": 24.3, "Outcome": "inactive"}
{"target gene": "SLC31A1", "reagent no.": 3, "G2 robust z-score": 2.3, "G2 cells, % of GMNN control": 19.2, "Outcome": "inactive"}
